# Assay results taken from article doi:10.1101/2021.03.26.436939.
# These are yes or no findings as the source states them, for the method shown. Binding seen in cells or lysates may run through a third protein. Some results given as binding are weak or reduced against the parent protein; the word gives no strength. Sequences can lack the tags named with a protein.
# T1: ^AID-FB(KI)PSPC1 (endogenous PSPC1 with knocked-in 3xFLAG-biotin-AID tag) (mouse (endogenous in mouse ESCs)) (UniProt Q8R326)
# T1 sequence (chain, biotin on the biotin tag (cells expressing BirA)): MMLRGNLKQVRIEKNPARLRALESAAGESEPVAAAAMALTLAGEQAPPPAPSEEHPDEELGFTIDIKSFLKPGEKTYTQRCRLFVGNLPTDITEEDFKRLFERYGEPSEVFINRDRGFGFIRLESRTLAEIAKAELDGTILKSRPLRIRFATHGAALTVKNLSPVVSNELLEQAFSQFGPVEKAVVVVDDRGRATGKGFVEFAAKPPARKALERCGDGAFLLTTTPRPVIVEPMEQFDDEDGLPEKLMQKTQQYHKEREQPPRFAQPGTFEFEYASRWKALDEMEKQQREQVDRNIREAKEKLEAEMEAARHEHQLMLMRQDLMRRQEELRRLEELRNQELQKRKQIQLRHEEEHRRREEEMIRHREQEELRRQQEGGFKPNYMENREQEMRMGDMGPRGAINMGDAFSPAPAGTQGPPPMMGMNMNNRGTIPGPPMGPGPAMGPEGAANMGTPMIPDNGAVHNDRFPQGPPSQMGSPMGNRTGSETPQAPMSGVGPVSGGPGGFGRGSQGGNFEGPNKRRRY
# B1: TATA-box binding protein (TBP), endogenous (protein, UniProt P29037 1-316)
# chain: MDQNNSLPPYAQGLASPQGAMTPGIPIFSPMMPYGTGLTPQPIQNTNSLSILEEQQRQQQQQQQQQQQQQAVATAAASVQQSTSQQPTQGASGQTPQLFHSQTLTTAPLPGTTPLYPSPMTPMTPITPATPASESSGIVPQLQNIVSTVNLGCKLDLKTIALRARNAEYNPKRFAAVIMRIREPRTTALIFSSGKMVCTGAKSEEQSRLAARKYARVVQKLGFPAKFLDFKIQNMVGSCDVKFPIRLEGLVLTHQQFSSYEPELFPGLIYRMIKPRIVLLIFVSGKVVLTGAKVRAEIYEAFENIYPILKGFRKTT
# Target: T1, ^AID-FB(KI)PSPC1 (endogenous PSPC1 with knocked-in 3xFLAG-biotin-AID tag) (mouse (endogenous in mouse ESCs))
# Assay: co-IP
binder,measurement,value
B1,binding,binds
